At least one peptide structure holds a part that was inferred or is arguable (an end, a ring closure or a residue). Where a SMILES comes first, the peptide text is derived from it. Bridges are numbered along the chain shown (N, C = ends).
What was measured:
[1] = tested on: mAb C5/D5; experiment: Peptide competition of phage binding to C5/D5 by ELISA
Procedure: To mimic the possible constrained structure in phage, in vitro oxidation was performed after peptide synthesis to introduce disulfide bonds between Cysteine residues in these peptides. […] There are total four tryptophan (W) residues in CD47. W2 is part of the signal peptide and therefore is not present in the mature protein. W58 is present in the N-terminus extracellular IgV-like domain of CD47 and is conserved among many IgV super family members. W136 is also located in the putative extracellular domain whereas W157 is thought to be in a transmembrane region of the protein (Lindberg, et al., J. Cell Biol., 123(2): 485-96, 1993). Amino acids Arginine and Valine (RV/L), present in many selected CL10 and LL9 phages are adjacent in CD47 at amino acid position 132-133, two amino acids upstream from W136. Both amino acids R and V are also found close to W58. Thus, the C5/D5-binding sequence on CD47 is likely to comprise several distant residues brought into proximity by the folding of the protein.
Antibody phage binding assays were performed in microtiter plate wells (Limbro-Titertek, Flow Laboratories) which were coated with relevant antibodies (20 μg/ml) for two hours at room temperature. All subsequent incubations were performed at room temperature. […] Microtiter wells were then analyzed in a microtiter plate reader at 405 nanometers (nm).

Protein sequences, listed by entry. Tags and fused reporters are not part of them. Residues count along the entry.
UniProt P78324, 31-373 limits assumed: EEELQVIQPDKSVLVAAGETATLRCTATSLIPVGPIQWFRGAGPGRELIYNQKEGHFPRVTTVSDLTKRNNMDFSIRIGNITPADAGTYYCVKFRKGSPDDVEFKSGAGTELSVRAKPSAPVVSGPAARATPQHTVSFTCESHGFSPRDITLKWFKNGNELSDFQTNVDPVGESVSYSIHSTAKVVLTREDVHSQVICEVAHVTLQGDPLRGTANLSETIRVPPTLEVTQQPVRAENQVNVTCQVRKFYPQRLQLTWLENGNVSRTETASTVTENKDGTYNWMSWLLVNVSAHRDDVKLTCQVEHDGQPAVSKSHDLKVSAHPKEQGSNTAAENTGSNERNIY
UniProt Q08722, 19-141 limits assumed: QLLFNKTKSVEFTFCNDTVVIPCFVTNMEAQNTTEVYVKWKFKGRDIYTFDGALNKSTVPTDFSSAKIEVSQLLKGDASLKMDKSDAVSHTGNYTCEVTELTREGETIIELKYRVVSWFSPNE

[2] = tested on: PMN; experiment: PMN transmigration across collagen-coated filters towards fMLP (MPO assay); assay type: cell-based, human; conditions: for inhibition of PMN transmigration: 1 h migration assay
[3] = biological target: T1, SIRPα1-GST (Homo sapiens, UniProt P78324); experiment: Direct binding of immobilized peptide to SIRPα1-GST; conditions: peptide coated at 2 mM, FIG. 6C
T1 construct: recombinant SIRPα1-GST fusion protein (containing the extracellular domain of SIRPα1) was generated as previously described; made in house; host or cells: 293E cells

[4] = biological target: T2, CD47-AP (Homo sapiens, UniProt Q08722); experiment: Direct binding of immobilized peptide to CD47-AP; conditions: peptide coated at 2 mM, FIG. 6C
T2 construct: A construct consisting of the extracellular domain of human CD47 fused to the catalytic domain of human placental AP; made in house

[5] = biological target: C5/D5 Fab binding to CD47; experiment: Peptide competition of C5/D5 Fab binding to purified CD47; design: species or system human; conditions: C5/D5 Fab 1 μg/ml, purified human CD47 from PMN and RBC; read-out: IC50, inhibition of C5/D5 Fab binding to CD47
[6] = biological target: T3, CD47-SIRPα1 binding (CD47-AP / SIRPα1-GST) (Homo sapiens, UniProt P78324); experiment: CD47-AP binding to immobilized SIRPα1-GST (alkaline phosphatase activity)
T3 construct: Microtiter plates were coated with SIRPα1 extracellular domain fusion protein (SIRPα1-GST, 1 μg/ml) for 2 hr; A construct consisting of the extracellular domain of human CD47 fused to the catalytic domain of human placental AP; made in house
Procedure: FIG. 2C (right panel) is a bar graph that illustrates CD47-AP specifically binds to SIRPα-GST fusion protein but not SIRPβ-GST. In this panel, microtiter plates were coated with either SIRPα-GST or highly similar SIRPβ-GST (10 μg/ml) followed by blocking with BSA. To each well was then added recombinant CD47-AP followed by washing. Bound CD47-AP was then detected by assay for alkaline phosphatase after addition of appropriate substrate.
FIGS. 6A-6C are graphs that illustrate the effects of synthetic peptides on CD47-SIRPα binding. FIG. 6A illustrates the effect of peptide C5/D5.1 on CD47-SIRPα binding. […] After blocking, CD47-AP was added in the absence or presence of synthetic peptides C5/D5.1 and control peptides C5/D5.4, C5/D5.11 and C5/D5.12 (used as 1 mM each). “*” p<0.01. CD47-AP binding was then detected by assay of alkaline phosphatase activity and normalized with respect to binding in the absence of any peptide (CD47-AP only). FIG. 6B illustrates the effect of dose-dependent inhibition of CD47-SIRPα1 binding by peptide C5/D5.1 performed as in FIG. 6A but with increasing concentrations of peptide as indicated. […] Microtiter plates were coated with peptide C5/D5.1 (2 mM) or BSA. After blocking, coated wells were incubated with either SIRPα1-GST or CD47-AP. Binding of these proteins were detected by a goat anti-GST antibody followed by peroxidase conjugated anti-goat secondary (for detecting SIRPα1-GST) or directly developed for alkaline phosphatase activity (for detecting CD47-AP). All the data represent the mean and standard deviation of triplicate wells.
Since the above results and those of others (Jiang, et al J. Biol. Chem., 274: 559, Seiffert, et al., Blood, 94: 3633, Han, et al., J. Biol. Chem., 275: 37984, Oldenborg, et al., Science, 288: 2051) strongly implicate CD47 as a membrane receptor for SIRPα, experiments were performed to test the direct binding of the IgV loop of CD47 to SIRPα (FIG. 2B). A recombinant CD47 IgV loop fused to alkaline phosphatase (CD47-AP) was constructed as detailed in the methods and expressed in mammalian (CHO) cells in order to allow for proper folding and glycosylation. The expressed CD47-AP fusion protein was then purified by immunoaffinity chromatography using anti CD47 mAb PF3.1-Sepharose. The structure of CD47 IgV domain in the purified CD47-AP was further tested for the ability to react with multiple functionally blocking anti-CD47 extracellular domain-reactive mAbs (Liu, et al., J. Biol. Chem., 276: 40156). To assay CD47-AP binding to SIRPα1, microtiter plates were coated with SIRPα-GST (2 μg/ml), blocked with BSA, followed by incubation with CD47-AP (1-2 μg/ml). Binding of CD47-AP was then assayed by directly measuring alkaline phosphatase (AP) activity. Conversely, wells coated with CD47 or JAM-AP were also assayed for binding with SIRP-GST using appropriate secondary antibodies.
Experiments were conducted to examine this hypothesis by testing the effect of peptide C5/D5.1 in CD47-SIRPα binding. In vitro CD47-SIRPα binding experiments were conducted using the extracellular domain recombinant proteins of SIRPα1 (SIRPα1-GST) and CD47 (CD47-AP) in which SIRPα1-GST fusion protein was immobilized and its binding to CD47 was assessed by incubation with CD47-AP followed by assaying alkaline phosphatase activity (Liu, et al. J. Biol. Chem., 277(12): 10028-36, 2002). […] To examine whether peptide C5/D5.1 could interfere CD47-SIRPα binding, binding assays were performed in the absence or presence of peptide C5/D5.1 and control peptides.
96 well microtiter plates were coated with SIRP-GST fusion protein for 2 h at room temperature (5 μg/ml). After blocking non-specific binding with 1% BSA (in HBSS (+)), monoclonal anti-SIRP antibodies were added at 10 μg/ml followed by incubation at room temperature for 30 min. After washing, the wells were incubated with peroxidase conjugated goat anti-mouse secondary and developed with the substrate ABTS. […]

CC[C@H](C)[C@@H]1NC(=O)[C@H](C(C)C)NC(=O)[C@H](CCCNC(=N)N)NC(=O)[C@H](CCC(=O)O)NC(=O)[C@@H](N)CSSC[C@@H](C(=O)O)NC(=O)[C@H](CCCNC(=N)N)NC(=O)[C@H](C(C)C)NC(=O)[C@H](Cc2c[nH]c3ccccc23)NC(=O)CNC(=O)[C@H]([C@@H](C)O)NC(=O)CNC1=O [C5/D5.1, CERVIGTGWVRC] (H-CERVIGTGWVRC-OH; disulfide 1-12; N-terminus and C-terminus assumed)
concentration range at which peptide competed C5/D5-selected CL10 and CL6 phage binding to C5/D5 [1]: low μM range
PMN transmigrated, % of total applied PMN ([2]; 0.5 mM peptide, 2 hr incubation, collagen-coated filters): 16.3±2.3%
inhibition of PMN transmigration ([2]; 0.1 mM peptide): partial inhibition
inhibition of PMN transmigration ([2]; peptide 1 mM or greater): virtually aboloshed
inhibition of PMN transmigration ([2]; peptide increased to 0.25 mM): progressively inhibited
direct binding of immobilized peptide to SIRPα1 fusion protein [3]: directly binds
direct binding of immobilized peptide to CD47-AP [4]: not
IC50 [5]: 3.8 mM
inhibition of CD47-SIRPα1 binding with increasing peptide concentrations ([6]; FIG. 6B): dose-dependent manner
binding of CD47-AP with SIRPα1-GST ([6]; in the presence of 4 mM peptide, FIG. 6B): completely abrogated
inhibition of CD47-AP binding to SIRPα1-GST ([6]; peptide 2 mM, CD47-AP 1 μg/ml, SIRPα1-GST coated at 1 μg/ml, FIG. 6A): partially inhibited

— patent US7282556B2, “Polynucleotides and polypeptides relating to the modulation of SIRPα-CD47” (Emory University, priority 2001, dated 2007)
